Source: PubChem BioAssay AID1671195 (Yale University, 2021)

- Aim: 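Knockdowns that increase or decrease uptake of fluorescent LDL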 (primary screen)
- Cell system: human Huh7 hepatoma cells
- Reagents: siRNA pool against human genes, 18 nM
- Timing: about 2 to 2.5 days of knockdown, then 8 h LDL uptake
- Challenge: DiI-labelled LDL at 30 µg/ml for 8 h, in lipoprotein-deficient serum medium
- Measurement: 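Fluorescent LDL signal imaged in cells, scaled to the plate median, robust z-score for each replicate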
- Scale: robust z-score: higher = more LDL uptake after knockdown
- Rule for the call: 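a gene counts as active if at least two replicate z-scores exceed ±2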
Shown is an unselected part of about 22,000 reagents. About 1,510 of them (6.9%) were called active. 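Active includes knockdowns raising or lowering LDL uptake; positive z-scores mean more uptake, negative mean less.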 Entries without a mark were called inactive. No sequences are given here.

gene symbol	PubChem SID	robust z-score, replicate 1	robust z-score, replicate 2	robust z-score, replicate 3
PABPC1L2A (poly(A) binding protein cytoplasmic 1 like 2A)	SID442895497	-0.231	-0.096	-0.198
FAM171A2 (family with sequence similarity 171 member A2)	SID442895529	-0.257	-0.122	-0.156
LOC441912 (retired record)	SID442884115	2 (active)	1.55	2.26
NKX3-2 (NK3 homeobox 2)	SID442893430	-0.355	-0.124	0.632
TMEM233 (transmembrane protein 233)	SID442898674	-0.538	-0.64	-0.398
MST1R (macrophage stimulating 1 receptor)	SID442895066	-0.699	0.0505	0.259
ZNF808 (zinc finger protein 808)	SID442896845	-0.545	-0.00217	-0.411
AK3 (adenylate kinase 3)	SID442887204	1.23	1.53	0.129
CNR1 (cannabinoid receptor 1)	SID442883795	1.72 (active)	2.62	2.6
ZUP1 (zinc finger containing ubiquitin peptidase 1)	SID442894382	0.381	-0.54	-0.0157
CDKL3 (cyclin dependent kinase like 3)	SID442888800	0.645	0.923	0.409
LOC342599 (retired record)	SID442894064	-0.0359	-0.0843	0.0532
RINT1 (RAD50 interactor 1)	SID442884138	1.52 (active)	2.11	2.1
SNX29P1 (sorting nexin 29 pseudogene 1)	SID442895580	0.0443	-0.233	-0.361
AKAP7 (A-kinase anchoring protein 7)	SID442902534	-0.513	-1.24	-1.55
RTKN (rhotekin)	SID442903973	-1.47	-1.23	-1.65
SLC6A9	SID442898920	-0.757	-0.747	-0.159
CCR7 (C-C motif chemokine receptor 7)	SID442899393	-0.633	-0.362	-0.848
CD200R1L (CD200 receptor 1 like)	SID442886508	1.25	1.13	1.05
RGS8 (regulator of G protein signaling 8)	SID442895862	-0.356	-0.19	-0.0957
IMPA1 (inositol monophosphatase 1)	SID442892143	0.332	0.0543	0.223
IZUMO4 (IZUMO family member 4)	SID442901089	-1.42	-0.417	-0.71
EHD1 (EH domain containing 1)	SID442883869	1.6 (active)	2.86	2.18
TYW1 (tRNA-yW synthesizing protein 1 homolog)	SID442903789	-0.807	-1.12	-2.25
CEP170 (centrosomal protein 170)	SID442887894	1.13	1.59	-0.253
VPS25 (vacuolar protein sorting 25 homolog)	SID442884472	-2.29 (active)	-2.04	-2.22
CTAGE1 (cutaneous T cell lymphoma-associated antigen 1)	SID442890450	0.449	0.208	0.59
IL13RA2 (interleukin 13 receptor subunit alpha 2)	SID442892799	0.393	-0.196	0.17
